Record: PubChem BioAssay AID1053208 (Peter MacCallum Cancer Centre, 2014)

- Purpose: 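Genes whose silencing cuts survival of bone tumour cells only with doxorubicin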 (primary screen)
- Cell system: mouse osteosarcoma cells, early-passage culture from an engineered mouse model of fibroblastic bone tumour
- Reagent: siRNA pool against mouse genes, 40 nM
- Time to read-out: about 120 h (48 h before drug, then 72 h with drug)
- Treatment: doxorubicin 100 nM for 72 h, roughly 30-40% inhibitory dose
- Measurement: 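Viability read as ATP luminescence after 72 h of 100 nM doxorubicin or none, duplicate wells averaged, scaled to non-targeting siRNA, then expressed as robust z-scores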
- Direction: viability z-score with doxorubicin and doxorubicin viability vs non-targeting: higher = more viable cells under doxorubicin; viability z-score without drug: higher = more viable cells with knock-down alone; z-score of drug to no-drug ratio: higher = less drug sensitisation by knock-down
- Rule for the call: 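a pool counts as active when its viability z-score with doxorubicin is -2 or below and its z-score without drug lies between -2 and 2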
The deposit covers about 17,000 reagents; below is a part drawn at random. 788 of them (4.7%) were called active. 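Calls rest on z-score classes alone; an extra cut-off of viability at most 70% of control was not applied to them.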 A number with no mark means an inactive call.

| Target gene | combined z-score class | viability z-score with doxorubicin | viability z-score without drug | z-score of drug to no-drug ratio | doxorubicin viability vs non-targeting |
| --- | --- | --- | --- | --- | --- |
| Macroh2a1 | no change with or without drug | 0.9 | 1.35 | 0.11 | 1.02 |
| Uggt1 | no change with or without drug | -1.57 | -0.84 | -1.01 | 0.8 |
| Hoxc13 | no change with or without drug | -0.22 | -1.18 | 0.79 | 0.92 |
| 2310002L09Rik | no change with or without drug | -1.01 | 0.34 | -1.12 | 0.85 |
| Nkx6-2 | no change with or without drug | -1.01 | -1.18 | -0.11 | 0.85 |
| Unc13a | no change with or without drug | 1.8 | 0.17 | 1.91 | 1.1 |
| Fubp1 | no change with or without drug | -1.35 | 0 | -1.35 | 0.82 |
| Prpf4 | no change with or without drug | -0.22 | 0.17 | -0.22 | 0.92 |
| Pex19 | no change with or without drug | 1.57 | 0.51 | 1.35 | 1.08 |
| Ddx17 | no change with or without drug | 1.69 | 1.52 | 0.79 | 1.09 |
| Or2h2c | no change with or without drug | -1.8 | -1.52 | -0.79 | 0.78 |
| Ankrd22 | no change with or without drug | -0.45 | 0.51 | -0.67 | 0.9 |
| Snw1 | no change with or without drug | -0.67 | 1.35 | -1.46 | 0.88 |
| Casp14 | no change with or without drug | 0.9 | 1.35 | 0.11 | 1.02 |
| Rbpms2 | no change with or without drug | -1.35 | 0.17 | -1.46 | 0.82 |
| Ephx2 | no change with or without drug | 0.34 | -0.51 | 0.79 | 0.97 |
| Notch3 | no change with or without drug | 0.67 | -0.84 | 1.46 | 1 |
| P2rx1 | no change with or without drug | 0.22 | -0.34 | 0.56 | 0.96 |
| Catsperd | no change with or without drug | 0.67 | -0.84 | 1.46 | 1 |
| Sec23b | no change with or without drug | 1.12 | 0.84 | 0.67 | 1.04 |

Single entries from above.
Result of Ddx17 in “doxorubicin viability vs non-targeting”: 1.09
Rbpms2, viability z-score with doxorubicin: -1.35
Result of Ankrd22 under “doxorubicin viability vs non-targeting”: 0.9
